We go through two sequences from patent publication US5137805.

For some assays here: At least one result comes from cells or an extract, where the contact may be indirect. For some assays here: A negative result means that nothing was seen under these conditions. Protein sequences can lack the tags named with them.

Series [1] has as its target T1, heat shock factor (HSF), in vitro heat-activated HeLa cytoplasmic S100 extract (Homo sapiens) (UniProt Q00613).
T1 sequence (looked up, limits assumed): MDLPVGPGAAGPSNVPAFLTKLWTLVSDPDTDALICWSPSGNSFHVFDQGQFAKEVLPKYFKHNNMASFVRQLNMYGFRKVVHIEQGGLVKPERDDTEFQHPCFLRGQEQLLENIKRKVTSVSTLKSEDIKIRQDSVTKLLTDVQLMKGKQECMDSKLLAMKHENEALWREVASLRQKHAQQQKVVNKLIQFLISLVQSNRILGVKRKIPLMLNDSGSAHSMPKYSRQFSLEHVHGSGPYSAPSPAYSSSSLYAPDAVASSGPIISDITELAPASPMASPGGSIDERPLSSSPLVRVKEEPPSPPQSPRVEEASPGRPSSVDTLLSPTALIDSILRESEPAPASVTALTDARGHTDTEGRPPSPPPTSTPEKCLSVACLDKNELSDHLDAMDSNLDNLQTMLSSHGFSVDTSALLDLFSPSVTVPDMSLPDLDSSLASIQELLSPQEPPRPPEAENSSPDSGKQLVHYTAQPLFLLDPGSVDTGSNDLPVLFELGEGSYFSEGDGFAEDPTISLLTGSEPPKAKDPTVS
The series can be described thus: competition with a labelled probe. Conditions: no competition for HSE probe; protein in an extract.

For series [2], the target named is T2, heat shock factor (HSF), from HeLa nuclear extract, fractionated on DNA-cellulose (Homo sapiens) (UniProt Q00613).
T2 sequence (looked up, limits assumed): T1 sequence (looked up, limits assumed)
The series can be described thus: binding assay. Conditions: affinity chromatography on oligo-Sepharose; loaded in 0.3 M KCl, eluted with 0.8 M KCl; purified native protein.

Turning to “CACCGTCGATTTCCCTTCTGAGCCAATCACCGAGCTCGA (double strand) [39-bp CCAAT oligonucleotide]”, the binding result in series [1] was “no binding”. In the case of “GATCCTAGAAGCTTCTAGAAGCTTCTAG (double strand) [self-complementary 28-mer HSE affinity oligonucleotide]”, the binding result in series [2] is listed as “binds”.
